Measured values: PubChem BioAssay AID588590 (National Center for Advancing Translational Sciences (NCATS), 2011)
Hit rate of the full screen: of about 390,000 compounds, about 4,000 (1%) were called active. This list was built around the results that the source calls inconclusive (neither active nor inactive); the mix of calls is not that of the screen. The call rests on the fitted dose curve; in most records, active means well fitted inhibition curve with a large enough effect; inconclusive means small, poorly fitted or top-dose-only effect, or another doubt; inactive means no such curve, though single readings can be large or run the other way. Where the call is inconclusive, the potency comes from a doubtful curve fit.

Amino acid sequences for entries named in this document (tags omitted). A change or cut given only in a name is not applied to a line headed by its entry.
UniProt Q9UNA4: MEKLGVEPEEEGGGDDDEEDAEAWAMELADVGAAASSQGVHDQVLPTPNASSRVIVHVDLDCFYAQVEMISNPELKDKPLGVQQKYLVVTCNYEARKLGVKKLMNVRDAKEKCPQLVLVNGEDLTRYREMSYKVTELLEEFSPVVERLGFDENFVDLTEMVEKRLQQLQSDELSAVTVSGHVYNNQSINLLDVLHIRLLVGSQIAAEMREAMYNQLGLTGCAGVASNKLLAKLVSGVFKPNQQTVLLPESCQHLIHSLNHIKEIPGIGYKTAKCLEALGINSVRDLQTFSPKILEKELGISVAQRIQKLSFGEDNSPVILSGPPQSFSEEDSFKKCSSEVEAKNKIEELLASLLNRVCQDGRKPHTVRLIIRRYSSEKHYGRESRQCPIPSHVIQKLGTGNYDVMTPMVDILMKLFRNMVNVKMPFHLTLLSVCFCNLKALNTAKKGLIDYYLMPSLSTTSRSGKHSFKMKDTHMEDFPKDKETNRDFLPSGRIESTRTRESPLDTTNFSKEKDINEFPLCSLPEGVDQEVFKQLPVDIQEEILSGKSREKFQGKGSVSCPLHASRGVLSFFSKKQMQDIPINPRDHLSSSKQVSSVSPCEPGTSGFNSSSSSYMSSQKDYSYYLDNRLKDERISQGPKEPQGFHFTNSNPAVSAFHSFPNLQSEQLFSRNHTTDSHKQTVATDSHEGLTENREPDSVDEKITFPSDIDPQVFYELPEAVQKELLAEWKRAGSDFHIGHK

molecular target: DNA polymerase iota (Homo sapiens) (UniProt Q9UNA4); experiment: qHTS for Inhibitors of Polymerase Iota; details: Pol iota fluorescent replication assay, 10 min; series mostly up to 115 µM
Summary of the method: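 Pol iota at 10 nM preincubated 15 min with compounds at room temperature; reaction started with fluorescent substrate, 50 nM final. Fluorescence read kinetically at 0 and 10 min; buffer-only wells as negative control.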
Potency means the concentration at half of the fitted maximal effect.

Potency, active:
CN(C)CCNC(=O)c1cccc2nc3c(ccc4ccccc43)nc12 79.4 µM, CCN(CC)CCOc1ccc2c(c1)C(=NO)c1cc(OCCN(CC)CC)ccc1-2 20 µM

Potency, inactive:
COc1cc(NS(=O)(=O)c2ccc(NC(=O)/C(=C/c3ccccc3Cl)NC(=O)c3ccccc3)cc2)nc(OC)n1, CCCCn1c(N)c(N(CCOC)C(=O)c2cc(-c3ccc(OC)c(OC)c3)nc3ccccc23)c(=O)[nH]c1=O, O=C(O)c1cc(N=Cc2c(O)c3ccccc3oc2=O)ccc1O, CCCCN(CC)C(=O)Cc1c(C(=O)O)[nH]c2ccc(Cl)cc12, Cc1c(C)c2c(OCC(=O)N3CCC(C(N)=O)CC3)cc3c(c2oc1=O)CCC(C)(C)O3, CCOc1ccccc1N(CC)C(=O)Cn1ncc2c([nH]c3ccccc32)c1=O, O=C(Nc1nnc(S(=O)(=O)N2CCCc3ccccc32)s1)c1cccc(Cl)c1, CCCCC/C=C\CC(O)/C=C/c1cccc(CC(O)CCCCO)n1 (stereo unspecified), CCc1cccc(C)c1NS(=O)(=O)c1c(C(=O)N2CCC(C)CC2)c(C)n(C)c1C, CCOP(=O)(OCC)/C(C#N)=C/c1c[nH]c2ccccc12, Cc1ccccc1OCCOC(=O)c1ccc(S(=O)(=O)N2CCCC2)cc1, Cc1ccc(-n2nc(CO)c(C(=O)NCCCCc3ccccc3)n2)cc1C

Potency, inconclusive:
O=C(NCc1ccco1)c1ccccc1NS(=O)(=O)c1ccc(Cl)s1 17.8 µM [inhibitor, partial curve, poor fit], COc1ccc(C2=C/C(=C\c3cccc(OC(C)=O)c3)C(=O)O2)cc1 39.8 µM [inhibitor, single point], Cc1cc(-c2csc(NC(=O)C3=COCCO3)n2)c(C)n1C 12.6 µM [inhibitor, full curve, poor fit], Cc1ccc(C(=O)Oc2ccc(/C=C3\C(=N)N4N=C(N5CCOCC5)SC4=NC3=O)cc2)cc1 0.708 µM [inhibitor, full curve, poor fit], C[C@]1(C(=O)NCc2cc(F)cc(C(F)(F)F)c2)C=C[C@@H](Cc2ccccc2)N1C(=O)c1ccccc1 8.91 µM [inhibitor, partial curve, poor fit], CCN(CC(=O)Nc1cccc(F)c1)Cc1nc2ccccc2c(=O)[nH]1 89.1 µM [inhibitor, single point], O=c1[nH][nH]c2cc(=O)n(-c3ccc(Cl)cc3)nc12 35.5 µM [inhibitor, partial curve], O=C1N=C(N2CCCC2C(=O)O)S/C1=C\c1ccco1 (stereo unspecified) 22.4 µM [inhibitor, partial curve, poor fit], O=C(O)c1c[nH]c2c([N+](=O)[O-])cccc2c1=O 31.6 µM [inhibitor, partial curve, poor fit], CN1OC[C@@H]2CN[C@H](c3cccc(-c4cc(Cl)cc(Cl)c4)c3)C[C@@H]21 39.8 µM [inhibitor, single point], O=C(CNS(=O)(=O)c1ccccc1)Nc1ccc(C(F)(F)F)cc1 89.1 µM [inhibitor, partial curve, poor fit], CCOc1ccccc1NC(=O)CSc1nc2cc(OC)c(OC)cc2c2nc(-c3ccccc3)nn12 79.4 µM [inhibitor, partial curve, poor fit], Cc1cc(NCCN2CCOCC2)c2ccc3ccccc3c2n1 7.94 µM [inhibitor, partial curve], COc1cccc(/C=C/c2nc(C#N)c(NCCc3ccc(OC)c(OC)c3)o2)c1 39.8 µM [inhibitor, single point], CCOC(=O)CC(=O)CSc1nnc2sc3ccccc3n12 20 µM [inhibitor, partial curve, poor fit], COC(=O)CSC1=C(C#N)C(c2ccc(C(C)C)cc2)CC(=O)N1 (stereo unspecified) 44.7 µM [inhibitor, partial curve, poor fit], O=C(CSc1nc2nc(-c3cccs3)cc(C(F)(F)F)c2c(=O)[nH]1)NCc1ccco1 12.6 µM [inhibitor, partial curve], N=c1c(C(=O)NCc2ccco2)cc2c(=O)n3ccccc3nc2n1Cc1ccc(Cl)cc1 20 µM [inhibitor, single point], CCN1/C(=C/c2cccc[n+]2C)Sc2ccc(OC)cc21 25.1 µM [inhibitor, full curve, poor fit], CCC(C)c1ccc(S(=O)(=O)Nc2cccnc2)cc1 (stereo unspecified) 10 µM [inhibitor, partial curve, poor fit], Cc1nnc(N2CCC(C(=O)NC3CCCCC3)CC2)c2nn(-c3ccccc3)c(C)c12 89.1 µM [inhibitor, single point], O=C(COC(=O)/C=C/c1ccco1)NCc1ccc2c(c1)OCO2 63.1 µM [inhibitor, partial curve, poor fit], O=C1Nc2ccc(C(=O)O)c(O)c2C1=O 15.8 µM [inhibitor, full curve, poor fit], Cc1nc(N)sc1-c1nnc(SCC(=O)Nc2nccs2)n1C 112 µM [inhibitor, single point], CC(/C=C/c1ccc2c(c1)OCO2)=N\NC(=O)c1cccc([N+](=O)[O-])c1 89.1 µM [inhibitor, partial curve, poor fit], O=C(O)c1ccc(-c2nc(-c3ccc(Cl)cc3Cl)cs2)cc1 56.2 µM [inhibitor, partial curve, poor fit], O=C(Nc1cc(-c2nc3cc(Cl)ccc3o2)ccc1Cl)c1ccco1 89.1 µM [inhibitor, single point], O=C1CC(=O)CC(c2ccco2)C1 17.8 µM [inhibitor, partial curve, poor fit], CSc1ncccc1C(=O)OCC(=O)c1[nH]c(C)c(C(C)=O)c1C 39.8 µM [inhibitor, partial curve, poor fit], COc1cc(NC(=O)c2cccc(F)c2)cc(OC)c1OC 39.8 µM [inhibitor, partial curve, poor fit], O=c1cc(CNc2cc(C(F)(F)F)cc(C(F)(F)F)c2)nc2sccn12 7.94 µM [inhibitor, partial curve, poor fit], C/C(=N\NC(=O)c1[nH]c2c([N+](=O)[O-])cc(C)cc2c1-c1ccccc1)c1cccnc1 6.31 µM [inhibitor, full curve, poor fit], CC(NC(=O)Cn1cnc([N+](=O)[O-])n1)c1ccccc1 (stereo unspecified) 22.4 µM [inhibitor, partial curve, poor fit], COc1cccc(-n2c(C)cc(/C=C3/C(=N)N4C(=NC3=O)SN=C4S(C)(=O)=O)c2C)c1 25.1 µM [inhibitor, full curve, poor fit], CN(C)/[N+]([O-])=N\Oc1cc(OC(=O)c2ccc(N)cc2)c([N+](=O)[O-])cc1[N+](=O)[O-] 17.8 µM [inhibitor, partial curve], O=C(NCCN1C(=O)S/C(=C\c2cccnc2)C1=O)c1cc(S(=O)(=O)N2CCOCC2)ccc1F 12.6 µM [inhibitor, full curve], Cc1ccc(-c2noc(-c3ccccc3NC(=O)c3ccccc3)n2)cc1 89.1 µM [inhibitor, single point], CC(C)(C)c1ccc(/C=C/C(=O)c2ccc(NC3=NCCCS3)cc2)cc1 0.631 µM [inhibitor, full curve, poor fit], O=C(O)/C(=C\c1ccccc1Cl)c1ccc(S(=O)(=O)N2CCCCC2)s1 8.91 µM [inhibitor, partial curve], COc1ccc(NC(=O)COc2coc(CN3CCc4ccccc4C3)cc2=O)cc1 17.8 µM [inhibitor, partial curve, poor fit], CCC1(c2ccccc2)NC(=O)N(CC(=O)Nc2cc(C(F)(F)F)ccc2N2CCCC2)C1=O (stereo unspecified) 39.8 µM [inhibitor, single point], CCOC(=O)C1CCN(C(=O)CCc2nnc3ccc(NCc4ccco4)nn23)CC1 14.1 µM [inhibitor, full curve], O=C(COc1coc(CN2CCN(c3cccc(Cl)c3)CC2)cc1=O)NC1CCCC1 100 µM [inhibitor, single point], CCc1nc2sc3c(c2c(=S)[nH]1)CC(C)(C)OC3 22.4 µM [inhibitor, partial curve, poor fit], O=C(Cn1cnc2c(OCc3ccccc3)ncnc21)NCc1ccc2[nH]ccc2c1 12.6 µM [inhibitor, partial curve, poor fit], CCn1c(SCC(=O)c2ccc(O)c(O)c2)nnc1-c1ccccc1 15.8 µM [inhibitor, partial curve, poor fit], Cc1c(Br)cc(C(=O)NCc2ccco2)c(C)c1C 22.4 µM [inhibitor, full curve]
